Some of the results follow.
Test: NTR1-driven beta-arrestin-GFP spot formation – imaging, U2OS cells, high content, primary screen (AID 493036) (AID 493036)
Settings: agonist mode, measured here: cell count, cytotoxicity flag, at 20 µM
Work on `CCC(=O)N(c1ccccc1)C1(COC)CCN(CCc2cccs2)CC1` yielded a cell count of 60 cells.
With `CCC(=O)N(c1ccccc1)C1(COC)CCN(CCn2nnn(CC)c2=O)CC1` the cell count was 53 cells.
Work on `CC(=O)c1ccc(N2CC2c2ccncc2)cc1` (stereo not drawn) yielded a cell count of 99 cells.
